This passage reports NP40-soluble protein abundance results from the supplement of paper PMC6411743.

Protein sequences, listed by entry. Tags and fused reporters are not part of them. Lines headed by an entry give the natural chain unless they say otherwise; changes in a name come on top.
UniProt Q9BRX5: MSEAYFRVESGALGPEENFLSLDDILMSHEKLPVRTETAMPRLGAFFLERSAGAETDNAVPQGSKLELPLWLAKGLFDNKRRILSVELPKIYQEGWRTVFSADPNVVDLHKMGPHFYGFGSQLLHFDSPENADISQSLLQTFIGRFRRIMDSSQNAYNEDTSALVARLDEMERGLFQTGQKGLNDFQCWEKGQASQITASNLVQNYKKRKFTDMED
UniProt Q99536: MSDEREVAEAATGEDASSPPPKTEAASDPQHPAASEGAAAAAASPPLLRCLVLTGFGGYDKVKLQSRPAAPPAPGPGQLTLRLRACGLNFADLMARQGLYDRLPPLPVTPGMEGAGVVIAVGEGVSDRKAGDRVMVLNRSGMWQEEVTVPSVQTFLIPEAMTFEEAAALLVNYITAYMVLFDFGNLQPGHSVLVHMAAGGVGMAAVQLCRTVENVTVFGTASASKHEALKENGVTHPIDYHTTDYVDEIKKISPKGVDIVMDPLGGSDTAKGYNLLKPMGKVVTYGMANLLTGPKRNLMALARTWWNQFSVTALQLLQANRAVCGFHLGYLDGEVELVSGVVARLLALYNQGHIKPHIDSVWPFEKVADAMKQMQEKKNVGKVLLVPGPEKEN
UniProt Q9BQE9, whole entry: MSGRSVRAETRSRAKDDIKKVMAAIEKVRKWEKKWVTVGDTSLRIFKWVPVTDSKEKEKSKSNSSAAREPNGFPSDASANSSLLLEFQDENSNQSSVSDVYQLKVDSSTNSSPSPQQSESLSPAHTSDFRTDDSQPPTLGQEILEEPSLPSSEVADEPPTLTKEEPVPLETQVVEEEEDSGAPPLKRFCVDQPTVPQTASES
UniProt Q9BYV9: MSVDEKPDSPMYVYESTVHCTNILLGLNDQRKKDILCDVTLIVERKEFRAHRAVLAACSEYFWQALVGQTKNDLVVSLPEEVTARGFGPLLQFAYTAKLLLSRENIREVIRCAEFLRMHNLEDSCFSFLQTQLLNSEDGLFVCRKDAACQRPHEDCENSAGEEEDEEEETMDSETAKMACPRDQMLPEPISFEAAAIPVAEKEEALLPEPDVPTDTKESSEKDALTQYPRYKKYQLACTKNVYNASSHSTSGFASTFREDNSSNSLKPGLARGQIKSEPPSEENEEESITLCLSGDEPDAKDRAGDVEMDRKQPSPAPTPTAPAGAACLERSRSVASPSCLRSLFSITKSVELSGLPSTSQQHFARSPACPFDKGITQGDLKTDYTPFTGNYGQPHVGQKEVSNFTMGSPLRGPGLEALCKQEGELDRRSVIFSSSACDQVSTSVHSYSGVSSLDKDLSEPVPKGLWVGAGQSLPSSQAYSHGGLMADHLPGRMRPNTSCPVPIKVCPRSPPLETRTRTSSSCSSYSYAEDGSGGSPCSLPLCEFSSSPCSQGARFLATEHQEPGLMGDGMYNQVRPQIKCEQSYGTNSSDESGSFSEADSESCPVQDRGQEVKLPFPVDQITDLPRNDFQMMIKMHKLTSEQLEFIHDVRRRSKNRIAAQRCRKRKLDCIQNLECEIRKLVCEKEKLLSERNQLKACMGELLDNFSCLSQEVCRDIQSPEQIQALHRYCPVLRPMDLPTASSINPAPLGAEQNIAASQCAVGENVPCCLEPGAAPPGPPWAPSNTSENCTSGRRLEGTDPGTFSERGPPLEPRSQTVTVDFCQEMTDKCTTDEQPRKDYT
UniProt Q9BQ69: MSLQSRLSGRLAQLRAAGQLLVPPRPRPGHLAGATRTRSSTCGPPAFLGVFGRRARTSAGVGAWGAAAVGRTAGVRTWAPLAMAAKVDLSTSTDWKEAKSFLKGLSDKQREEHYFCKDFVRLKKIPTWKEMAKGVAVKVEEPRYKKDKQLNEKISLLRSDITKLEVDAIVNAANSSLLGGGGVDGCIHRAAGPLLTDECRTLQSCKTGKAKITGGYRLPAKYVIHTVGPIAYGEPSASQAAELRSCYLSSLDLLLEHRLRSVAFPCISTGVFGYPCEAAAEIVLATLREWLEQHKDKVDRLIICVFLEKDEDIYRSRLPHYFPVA
UniProt Q96S66: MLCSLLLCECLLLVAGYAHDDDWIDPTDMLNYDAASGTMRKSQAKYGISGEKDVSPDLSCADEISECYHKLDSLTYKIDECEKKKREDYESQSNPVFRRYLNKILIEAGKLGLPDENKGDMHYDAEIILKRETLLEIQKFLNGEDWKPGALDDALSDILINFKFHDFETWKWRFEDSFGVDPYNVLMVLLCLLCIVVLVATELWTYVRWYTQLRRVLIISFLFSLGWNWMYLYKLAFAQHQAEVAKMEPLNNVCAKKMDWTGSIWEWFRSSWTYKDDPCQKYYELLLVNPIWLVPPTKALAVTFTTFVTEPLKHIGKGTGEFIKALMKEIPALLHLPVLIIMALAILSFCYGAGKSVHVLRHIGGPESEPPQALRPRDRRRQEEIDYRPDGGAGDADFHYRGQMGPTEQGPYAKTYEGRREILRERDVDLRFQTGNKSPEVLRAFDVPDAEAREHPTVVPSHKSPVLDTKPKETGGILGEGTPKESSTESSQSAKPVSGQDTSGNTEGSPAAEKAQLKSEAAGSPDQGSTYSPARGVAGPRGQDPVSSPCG
UniProt Q99714: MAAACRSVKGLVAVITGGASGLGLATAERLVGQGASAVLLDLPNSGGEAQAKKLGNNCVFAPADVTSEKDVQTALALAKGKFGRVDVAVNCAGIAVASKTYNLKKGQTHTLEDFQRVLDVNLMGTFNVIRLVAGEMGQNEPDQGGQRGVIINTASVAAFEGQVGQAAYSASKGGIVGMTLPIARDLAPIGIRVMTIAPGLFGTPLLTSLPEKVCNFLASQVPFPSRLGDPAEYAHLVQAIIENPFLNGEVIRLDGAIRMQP
UniProt Q9BW27: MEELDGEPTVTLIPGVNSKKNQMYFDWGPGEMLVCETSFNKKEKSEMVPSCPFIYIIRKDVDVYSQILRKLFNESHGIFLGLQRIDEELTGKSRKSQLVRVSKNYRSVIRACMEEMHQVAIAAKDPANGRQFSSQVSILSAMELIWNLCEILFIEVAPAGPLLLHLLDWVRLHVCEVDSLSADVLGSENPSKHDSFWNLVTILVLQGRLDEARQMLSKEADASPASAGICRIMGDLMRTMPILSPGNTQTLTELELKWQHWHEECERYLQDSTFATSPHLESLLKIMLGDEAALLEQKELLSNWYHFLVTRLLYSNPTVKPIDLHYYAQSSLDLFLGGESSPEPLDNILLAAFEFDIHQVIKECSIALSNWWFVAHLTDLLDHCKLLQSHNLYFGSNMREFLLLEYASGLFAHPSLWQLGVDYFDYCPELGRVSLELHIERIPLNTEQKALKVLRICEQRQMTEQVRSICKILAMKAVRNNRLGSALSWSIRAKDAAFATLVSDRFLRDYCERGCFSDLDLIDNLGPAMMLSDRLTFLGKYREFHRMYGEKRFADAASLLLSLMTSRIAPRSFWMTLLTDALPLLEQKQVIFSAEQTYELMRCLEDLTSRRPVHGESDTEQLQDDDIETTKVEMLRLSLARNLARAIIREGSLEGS
UniProt Q96NW4, whole entry: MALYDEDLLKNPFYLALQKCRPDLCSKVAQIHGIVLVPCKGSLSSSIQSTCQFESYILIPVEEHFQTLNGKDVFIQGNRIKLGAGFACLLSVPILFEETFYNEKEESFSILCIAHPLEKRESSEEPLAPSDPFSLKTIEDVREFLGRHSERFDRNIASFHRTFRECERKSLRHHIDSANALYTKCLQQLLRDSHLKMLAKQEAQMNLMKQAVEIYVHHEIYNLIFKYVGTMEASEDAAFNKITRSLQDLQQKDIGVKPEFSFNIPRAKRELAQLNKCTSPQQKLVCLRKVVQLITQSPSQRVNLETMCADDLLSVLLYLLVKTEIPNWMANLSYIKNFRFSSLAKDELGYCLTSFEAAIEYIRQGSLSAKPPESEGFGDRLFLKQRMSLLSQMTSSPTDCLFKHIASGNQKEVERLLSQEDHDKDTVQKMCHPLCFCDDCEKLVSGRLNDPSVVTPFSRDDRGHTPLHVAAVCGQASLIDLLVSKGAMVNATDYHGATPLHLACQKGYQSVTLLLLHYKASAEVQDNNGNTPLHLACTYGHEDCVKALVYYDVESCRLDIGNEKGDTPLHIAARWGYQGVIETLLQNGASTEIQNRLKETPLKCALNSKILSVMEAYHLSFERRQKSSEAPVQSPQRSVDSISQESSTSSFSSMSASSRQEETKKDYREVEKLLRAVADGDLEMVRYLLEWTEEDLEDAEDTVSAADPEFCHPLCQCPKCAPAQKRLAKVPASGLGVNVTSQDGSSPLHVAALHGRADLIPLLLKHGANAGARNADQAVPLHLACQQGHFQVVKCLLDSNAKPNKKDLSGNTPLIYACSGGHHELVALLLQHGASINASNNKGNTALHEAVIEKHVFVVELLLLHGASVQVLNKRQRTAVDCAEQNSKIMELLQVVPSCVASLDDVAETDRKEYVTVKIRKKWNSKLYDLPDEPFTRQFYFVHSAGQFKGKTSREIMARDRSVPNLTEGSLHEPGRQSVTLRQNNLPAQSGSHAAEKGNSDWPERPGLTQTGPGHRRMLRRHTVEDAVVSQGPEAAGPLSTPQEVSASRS
UniProt Q9BQS8: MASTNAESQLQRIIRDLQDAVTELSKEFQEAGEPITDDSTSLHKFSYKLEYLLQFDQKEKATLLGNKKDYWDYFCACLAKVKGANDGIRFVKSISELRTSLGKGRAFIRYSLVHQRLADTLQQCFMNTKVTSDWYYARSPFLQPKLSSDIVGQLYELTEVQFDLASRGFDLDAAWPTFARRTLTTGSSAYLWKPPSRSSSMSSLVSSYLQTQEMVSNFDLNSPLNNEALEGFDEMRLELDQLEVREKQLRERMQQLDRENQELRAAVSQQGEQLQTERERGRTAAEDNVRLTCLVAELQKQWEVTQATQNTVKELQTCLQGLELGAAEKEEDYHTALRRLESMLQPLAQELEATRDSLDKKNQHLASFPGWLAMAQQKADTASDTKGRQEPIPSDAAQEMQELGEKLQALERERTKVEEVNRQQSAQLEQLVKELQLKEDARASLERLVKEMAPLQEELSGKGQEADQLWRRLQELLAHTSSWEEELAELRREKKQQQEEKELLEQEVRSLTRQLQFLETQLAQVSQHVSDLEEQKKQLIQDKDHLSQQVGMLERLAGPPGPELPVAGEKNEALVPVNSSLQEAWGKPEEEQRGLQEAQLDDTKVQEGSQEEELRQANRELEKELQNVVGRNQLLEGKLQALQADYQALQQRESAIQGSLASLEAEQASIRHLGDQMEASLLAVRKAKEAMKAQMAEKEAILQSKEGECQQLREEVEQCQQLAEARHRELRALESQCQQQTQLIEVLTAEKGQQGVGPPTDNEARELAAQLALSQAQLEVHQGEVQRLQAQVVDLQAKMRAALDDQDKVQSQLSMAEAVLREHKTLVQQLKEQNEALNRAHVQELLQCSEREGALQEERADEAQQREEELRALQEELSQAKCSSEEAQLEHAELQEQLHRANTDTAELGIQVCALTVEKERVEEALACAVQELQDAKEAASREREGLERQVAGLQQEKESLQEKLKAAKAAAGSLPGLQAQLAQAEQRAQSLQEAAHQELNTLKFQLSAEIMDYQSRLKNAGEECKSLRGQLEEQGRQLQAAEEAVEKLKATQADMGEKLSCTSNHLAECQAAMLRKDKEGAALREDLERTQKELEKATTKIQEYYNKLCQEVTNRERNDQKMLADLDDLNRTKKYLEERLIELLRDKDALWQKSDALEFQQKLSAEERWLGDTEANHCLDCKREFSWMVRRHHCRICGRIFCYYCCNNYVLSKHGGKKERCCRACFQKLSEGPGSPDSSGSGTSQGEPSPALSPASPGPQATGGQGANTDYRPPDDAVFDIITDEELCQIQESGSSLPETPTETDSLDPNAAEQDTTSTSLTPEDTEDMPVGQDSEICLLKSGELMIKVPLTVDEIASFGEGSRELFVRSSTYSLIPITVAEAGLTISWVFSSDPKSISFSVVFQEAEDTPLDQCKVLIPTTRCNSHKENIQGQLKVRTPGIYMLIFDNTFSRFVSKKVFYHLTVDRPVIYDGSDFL
UniProt Q96RR4, whole entry, looked up: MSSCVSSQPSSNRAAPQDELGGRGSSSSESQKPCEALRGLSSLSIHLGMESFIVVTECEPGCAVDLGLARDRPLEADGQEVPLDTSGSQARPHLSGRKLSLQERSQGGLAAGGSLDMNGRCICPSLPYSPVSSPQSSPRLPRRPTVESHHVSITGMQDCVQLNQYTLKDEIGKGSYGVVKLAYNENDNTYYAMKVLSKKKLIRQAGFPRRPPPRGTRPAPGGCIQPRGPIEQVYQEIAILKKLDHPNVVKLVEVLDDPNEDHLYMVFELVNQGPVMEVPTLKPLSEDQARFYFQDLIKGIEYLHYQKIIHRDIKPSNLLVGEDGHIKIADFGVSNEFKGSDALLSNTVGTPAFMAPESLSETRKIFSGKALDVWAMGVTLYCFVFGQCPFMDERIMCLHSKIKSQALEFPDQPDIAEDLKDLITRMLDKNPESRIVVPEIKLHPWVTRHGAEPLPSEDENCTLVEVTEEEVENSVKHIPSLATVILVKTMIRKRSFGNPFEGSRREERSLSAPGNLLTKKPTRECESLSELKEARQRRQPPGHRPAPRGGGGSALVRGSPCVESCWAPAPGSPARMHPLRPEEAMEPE

± gives the standard deviation of the averaged measurements. This is one part of the list.

Compound in this experiment: Nc1nc2c(ncn2[C@@H]2O[C@H](COP(=O)(O)OP(=O)(O)OP(=O)(O)O)[C@@H](O)[C@H]2O)c(=O)[nH]1 [guanosine triphosphate]
The experiment in a line: NP40-soluble protein abundance relative to vehicle (solubility fold change) (ratio); higher = more soluble protein in presence of GTP. Put shortly: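 Jurkat crude lysate prepared with a Dounce homogeniser was treated at eight concentrations spanning 0.1 to 10 mM, 10 min at room temperature then 3 min at 37 °C. Solubilisation with 0.8% NP40 and benzonase and ultracentrifugation preceded TMT labelling of the supernatant for LC-MS/MS. Fold change against the detergent-processed vehicle was determined per replicate from vsn-normalised intensities, across three independent experiments.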

GINS3 (UniProt Q9BRX5): the NP40-soluble protein abundance reads like this: (concentration: 0.1mM) 0.859 ± 0.039; (concentration: 0.5mM) 0.839 ± 0.025; (concentration: 1mM) 0.962 ± 0.036; (concentration: 2mM) 0.9701 ± 0.0067; (concentration: 4mM) 0.968 ± 0.026; (concentration: 6mM) 0.945 ± 0.043. Further, the NP40-soluble protein abundance was 0.866 ± 0.097 (concentration: 8mM) and 0.981 ± 0.042 (concentration: 10mM).
Consider VAT1 (UniProt Q99536), for which the NP40-soluble protein abundance is, setting by setting: (concentration: 0.1mM) 0.919 ± 0.097; (concentration: 0.5mM) 0.953 ± 0.082; (concentration: 1mM) 0.916 ± 0.081; (concentration: 2mM) 0.902 ± 0.091; (concentration: 4mM) 0.885 ± 0.089; (concentration: 6mM) 0.891 ± 0.089. Besides, the NP40-soluble protein abundance is, setting by setting: (concentration: 8mM) 0.853 ± 0.099; (concentration: 10mM) 0.86 ± 0.084.
Regarding BCL7B (UniProt Q9BQE9), the NP40-soluble protein abundance (concentration: 0.1mM) turned out to be 1.12 ± 0.14; the NP40-soluble protein abundance (concentration: 0.5mM) was found to be 1.13 ± 0.014; the NP40-soluble protein abundance (concentration: 1mM) is 1.09 ± 0.14; the NP40-soluble protein abundance (concentration: 2mM) is 1.17 ± 0.043; the NP40-soluble protein abundance (concentration: 4mM) was found to be 1.28 ± 0.23; the NP40-soluble protein abundance (concentration: 6mM) was 1.13 ± 0.1. Also, the NP40-soluble protein abundance was 1.12 ± 0.075 (concentration: 8mM) and 1.17 ± 0.084 (concentration: 10mM).
In the case of PPP1R9B (UniProt Q96SB3), the NP40-soluble protein abundance (concentration: 0.1mM) stood at 1.03 ± 0.17; the NP40-soluble protein abundance (concentration: 0.5mM) came to 1.02 ± 0.15; the NP40-soluble protein abundance (concentration: 1mM) was determined as 1.11 ± 0.16; the NP40-soluble protein abundance (concentration: 2mM) stood at 1.12 ± 0.15; the NP40-soluble protein abundance (concentration: 4mM) stood at 1.18 ± 0.22; the NP40-soluble protein abundance (concentration: 6mM) was 1.24 ± 0.21. The NP40-soluble protein abundance runs as follows: (concentration: 8mM) 1.39 ± 0.21; (concentration: 10mM) 1.46 ± 0.19.
Take BACH2 (UniProt Q9BYV9): the NP40-soluble protein abundance was 1.02 ± 0.015 (concentration: 0.1mM); 1.01 ± 0.12 (concentration: 0.5mM); 1.1 ± 0.029 (concentration: 1mM); 0.979 ± 0.073 (concentration: 2mM); 1.06 ± 0.056 (concentration: 4mM); 1.14 ± 0.14 (concentration: 6mM). The NP40-soluble protein abundance (concentration: 8mM) came to 1.02 ± 0.057 and the NP40-soluble protein abundance (concentration: 10mM) amounted to 1.11 ± 0.014.
Regarding UniProt Q9BXW7 and related entries, the NP40-soluble protein abundance worked out at 1.01 ± 0.049 (concentration: 0.1mM); 1.01 ± 0.075 (concentration: 0.5mM); 0.863 ± 0.06 (concentration: 1mM); 0.917 ± 0.11 (concentration: 2mM); 0.858 ± 0.06 (concentration: 4mM); 0.86 ± 0.085 (concentration: 6mM). Moreover, the NP40-soluble protein abundance (concentration: 8mM) is 0.804 ± 0.051 and the NP40-soluble protein abundance (concentration: 10mM) was found to be 0.85 ± 0.035.
As for MACROD1 (UniProt Q9BQ69), the NP40-soluble protein abundance is, setting by setting: (concentration: 0.1mM) 0.962 ± 0.036; (concentration: 0.5mM) 0.899 ± 0.045; (concentration: 1mM) 0.961 ± 0.036; (concentration: 2mM) 0.916 ± 0.07; (concentration: 4mM) 0.897 ± 0.033; (concentration: 6mM) 0.922 ± 0.066. The NP40-soluble protein abundance runs as follows: (concentration: 8mM) 0.855 ± 0.11; (concentration: 10mM) 0.871 ± 0.11.
On to UniProt Q96S66 and related entries, for which the NP40-soluble protein abundance is 0.976 ± 0.045 (concentration: 0.1mM); 1.01 ± 0.12 (concentration: 0.5mM); 0.961 ± 0.025 (concentration: 1mM); 0.943 ± 0.087 (concentration: 2mM); 0.934 ± 0.091 (concentration: 4mM); 0.978 ± 0.043 (concentration: 6mM). The NP40-soluble protein abundance was determined as 0.994 ± 0.071 (concentration: 8mM) and 1.01 ± 0.093 (concentration: 10mM).
On to FUT8 (UniProt Q9BYC5), for which the NP40-soluble protein abundance is, setting by setting: (concentration: 0.1mM) 1.03 ± 0.094; (concentration: 0.5mM) 1.05 ± 0.076; (concentration: 1mM) 1.06 ± 0.051; (concentration: 2mM) 0.965 ± 0.043; (concentration: 4mM) 1.02 ± 0.069; (concentration: 6mM) 0.99 ± 0.08. Besides, the NP40-soluble protein abundance worked out at 1.01 ± 0.16 (concentration: 8mM) and 1 ± 0.069 (concentration: 10mM).
In the case of HSD17B10 (UniProt Q99714), the NP40-soluble protein abundance is 0.909 ± 0.13 (concentration: 0.1mM); 0.922 ± 0.1 (concentration: 0.5mM); 0.873 ± 0.1 (concentration: 1mM); 0.885 ± 0.093 (concentration: 2mM); 0.881 ± 0.1 (concentration: 4mM); 0.869 ± 0.09 (concentration: 6mM). Also, the NP40-soluble protein abundance turned out to be 0.85 ± 0.095 (concentration: 8mM) and 0.864 ± 0.081 (concentration: 10mM).
On to NUP85 (UniProt Q9BW27), for which the NP40-soluble protein abundance came to 1.13 ± 0.072 (concentration: 0.1mM); 1.12 ± 0.094 (concentration: 0.5mM); 0.989 ± 0.043 (concentration: 1mM); 1.02 ± 0.099 (concentration: 2mM); 1.03 ± 0.11 (concentration: 4mM); 1 ± 0.19 (concentration: 6mM). Besides, the NP40-soluble protein abundance runs as follows: (concentration: 8mM) 0.975 ± 0.033; (concentration: 10mM) 1.02 ± 0.13.
On to UniProt Q96NW4 and related entries, for which the NP40-soluble protein abundance is, setting by setting: (concentration: 0.1mM) 1.06 ± 0.018; (concentration: 0.5mM) 1.04 ± 0.11; (concentration: 1mM) 0.9944 ± 0.0048; (concentration: 2mM) 1.02 ± 0.02; (concentration: 4mM) 0.987 ± 0.013; (concentration: 6mM) 1.03 ± 0.011. For the same target, the NP40-soluble protein abundance was determined as 1.02 ± 0.029 (concentration: 8mM) and 0.989 ± 0.048 (concentration: 10mM).
With UniProt Q9BQS8 and related entries, the NP40-soluble protein abundance amounted to 1.03 ± 0.1 (concentration: 0.1mM); 0.991 ± 0.067 (concentration: 0.5mM); 1.05 ± 0.074 (concentration: 1mM); 1.06 ± 0.11 (concentration: 2mM); 1.1 ± 0.047 (concentration: 4mM); 1.04 ± 0.03 (concentration: 6mM). The NP40-soluble protein abundance turned out to be 1.03 ± 0.06 (concentration: 8mM) and 1.04 ± 0.11 (concentration: 10mM).
For UniProt Q96RR4 and related entries, the NP40-soluble protein abundance is 1.07 ± 0.067 (concentration: 0.1mM); 1.03 ± 0.031 (concentration: 0.5mM); 1.09 ± 0.09 (concentration: 1mM); 1.02 ± 0.054 (concentration: 2mM); 1.02 ± 0.072 (concentration: 4mM); 1.02 ± 0.12 (concentration: 6mM). Besides, the NP40-soluble protein abundance (concentration: 8mM) was 0.981 ± 0.035 and the NP40-soluble protein abundance (concentration: 10mM) amounted to 1.02 ± 0.062.
GPA33 (UniProt Q99795): the NP40-soluble protein abundance is, setting by setting: (concentration: 0.1mM) 0.897 ± 0.015; (concentration: 0.5mM) 0.8973 ± 0.0018; (concentration: 1mM) 0.937 ± 0.015; (concentration: 2mM) 0.877 ± 0.052; (concentration: 4mM) 0.82 ± 0.036; (concentration: 6mM) 0.871 ± 0.066. Besides, the NP40-soluble protein abundance reads like this: (concentration: 8mM) 0.878 ± 0.072; (concentration: 10mM) 0.967 ± 0.047.
